Measurements: patent US10829440B2, “Antibacterial compounds and methods of making and using same” (Brown University, priority 2015, dated 2020)
At least one compound was matched to its structure with a doubt left.

By UniProt entry, the sequences of proteins in these tests, tags left out. Residues count along the entry.
UniProt O32083, 30-282: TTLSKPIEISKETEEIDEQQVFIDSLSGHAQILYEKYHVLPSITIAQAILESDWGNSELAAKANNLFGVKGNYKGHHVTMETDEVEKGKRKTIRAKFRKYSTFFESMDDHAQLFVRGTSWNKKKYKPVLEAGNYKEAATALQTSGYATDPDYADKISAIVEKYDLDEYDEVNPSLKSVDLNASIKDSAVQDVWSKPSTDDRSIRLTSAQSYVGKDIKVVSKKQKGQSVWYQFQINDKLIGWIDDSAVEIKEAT

Target: LytG (GH73) (Bacillus subtilis, UniProt O32083)
Assay: In vitro GlcNAcase inhibition, turbidometric assay with purified peptidoglycan
Assay type: biochemical, B. subtilis
Source text: FIG. 9 is a graph illustrating inhibition of LytG (GH73) from B. subtilis by fgka. The assay involved in vitro GlcNAcase inhibition of B. subtilis LytG by fgka, as measured using turbidometric assays with purified peptidoglycan (Horsburgh, et al., 2003, Biochemistry 42:257).

For CCCCNC(=O)C(C1CCCCC1)N(C(=O)c1ccccc1I)C1CCCCC1 (stereo not shown) [fgka], the “inhibition of GlcNAcase LytG” value was “inhibition”.
